Test results as given in the supplement of paper PMC5407854, “Inhibitor of ppGalNAc-T3-mediated O-glycosylation blocks cancer cell invasiveness and lowers FGF23 levels” (eLife, 2017).
The full ranking holds about 1,700 compounds; the median of “T3 sensor activation Q score (MG/GFP ratio z-score vs DMSO controls)” is about 0.25, and the highest 2% start at about 1.9. Some of the results follow.

Each molecule was assayed on ppGalNAc-T3 sensor (assay: T3 sensor activation Q score (MG/GFP ratio z-score vs DMSO controls) (SD units); higher = more sensor activation (inhibition of ppGalNAc-T3 glycosylation)). Details: HEK293 sensor cells; 10 µM; 6 h.
Protocol: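 Cells were treated with compound at 10 uM for 6 h, then MG/GFP ratio was read by flow cytometry (10,000 cells per well, duplicate wells). Q = (R - R_neg)/SD_neg relative to DMSO vehicle controls; the signal rises when the glycosyltransferase is inhibited.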
For `NC(=S)Nc1cccc(Cl)c1`, the “T3 sensor activation Q score” value was -1.15. `Cc1c(COC(=O)NC(C)C)c(COC(=O)NC(C)C)c2n1CS(=O)(=O)C2` was tested, and the “T3 sensor activation Q score” value was 0.8. `O=C(Nc1ccc(C2=NCCN2)cc1)c1ccc(Cl)c(C(=O)Nc2ccc(C3=NCCN3)cc2)c1` was tested, and the “T3 sensor activation Q score” value was 1.3. With `c1cc(-n2nnc3cnccc32)ccn1` the “T3 sensor activation Q score” value was -1.2. For `COc1ccc(NC(=O)CC(C)=O)c(OC)c1`, the “T3 sensor activation Q score” value was -0.1. In the case of `CCCCOP(=O)(OCCCC)C1(C)CC(=O)CC(C)(C)C1` (stereo not given), the “T3 sensor activation Q score” value is reported as -0.35. For `CC(=O)Nc1c(C)cc(OCC(=O)O)cc1C`, the “T3 sensor activation Q score” value was -0.3. In the case of `COc1ccc(/C=C2/CCOC2=O)cc1`, the “T3 sensor activation Q score” value is reported as -1.3. With `O=NN(CCCl)C(=O)NCCCl` the “T3 sensor activation Q score” value was 1. `C1=CC2(C=C1)OC21CCC2(C=CC3(C2)OC3C2CCCCC2)CC1` (stereo not given) was tested, and the “T3 sensor activation Q score” value was 1.05. In the case of `O=C(O)C(c1ccccc1)C1(O)CCCCC1` (stereo not given), the “T3 sensor activation Q score” value is reported as 0.2. In the case of `CC(C)(C)NC(=O)c1ccc(C(=O)NC(C)(C)C)cc1`, the “T3 sensor activation Q score” value is reported as -0.4. `CCCCN1CCNC1=S` was tested, and the “T3 sensor activation Q score” value was -0.95. `O=c1[nH]c(C(F)(F)C(F)(F)C(F)(F)F)no1` was tested, and the “T3 sensor activation Q score” value was -0.1. In the case of `Cc1[nH]c(=O)n(C(C)C)c(=O)c1Br`, the “T3 sensor activation Q score” value is reported as 0.5. In the case of `COC(=O)c1cncc(C)c1`, the “T3 sensor activation Q score” value is reported as -1.15. With `Nc1nc(N)nc(C2C=CCCC2)n1` (stereo not given) the “T3 sensor activation Q score” value was 1.55. `CCCCOc1ccc(NC(=O)Nc2nnc(C)s2)cc1` was tested, and the “T3 sensor activation Q score” value was 1.45. In the case of `CC(C)(C)NC1=NCCNC(c2ccccc2)=C1`, the “T3 sensor activation Q score” value is reported as 0.15. For `Clc1cc2c(nn1)Nc1ccccc1S2`, the “T3 sensor activation Q score” value was 0.2. In the case of `O=C(O)C(Cc1c[nH]c2ccccc12)N1C(=O)c2ccccc2C1=O` (stereo not given), the “T3 sensor activation Q score” value is reported as 0.2. `CCOC(=O)c1nc(SC)n(C)c1C(=O)OCC` was tested, and the “T3 sensor activation Q score” value was 0.35. `COc1cc(NC(=O)c2cc3ccccc3cc2O)c(OC)cc1Cl` was tested, and the “T3 sensor activation Q score” value was -6.4. In the case of `O=S(=O)(O)c1ccc2c(c1)C(C(Cl)(Cl)Cl)OC(C(Cl)(Cl)Cl)O2` (stereo not given), the “T3 sensor activation Q score” value is reported as 0.65. In the case of `CC1=C(O)C(=O)C(c2c(C)cc(C)c(Br)c2C)=C(O)C1=O`, the “T3 sensor activation Q score” value is reported as 1.35. For `CCC(C)c1c(N)n(S(=O)(=O)c2ccc(C)cc2)oc1=O` (stereo not given), the “T3 sensor activation Q score” value was 0.6. In the case of `N#CC1C(=O)NC(=O)C(C#N)C12CCCC(C(F)(F)F)C2` (stereo not given), the “T3 sensor activation Q score” value is reported as 0.3. In the case of `NC(=O)c1ccc(Oc2ccc(C(N)=O)cc2)cc1`, the “T3 sensor activation Q score” value is reported as -1. In the case of `c1ccc(NN(Cc2ccncc2)c2ccccc2)cc1`, the “T3 sensor activation Q score” value is reported as -0.1. For `O=S1(=O)CCN(Cc2ccccn2)CC1`, the “T3 sensor activation Q score” value was 1.25. `CCCCCC(=O)C(=O)c1ccc(O)cc1O` was tested, and the “T3 sensor activation Q score” value was 0.75. `O=C(CN1CCOCC1)N1CCOCC1` was tested, and the “T3 sensor activation Q score” value was 0.65. In the case of `Cc1ccc(-n2nnnc2-c2cccnc2)cc1`, the “T3 sensor activation Q score” value is reported as -0.15. With `N#Cc1cc(-c2ccccc2)[nH]c1-c1nccc2ccccc12` the “T3 sensor activation Q score” value was -1.45. `Nc1ccccc1C(=O)Nc1ccc(Cl)cc1Cl` was tested, and the “T3 sensor activation Q score” value was 0.95. For `O=C(O)CCc1cccnc1`, the “T3 sensor activation Q score” value was 0.5. With `Clc1ccccc1-c1nc(-c2ccncc2)no1` the “T3 sensor activation Q score” value was 1.35. `CC(=O)c1cc2c(cc1C)CCCC2(C)C` was tested, and the “T3 sensor activation Q score” value was -0.3. In the case of `C=CCOC(=O)/C=C\C(=O)NC(N)=O`, the “T3 sensor activation Q score” value is reported as 0.9. For `COc1ccc([N+](=O)[O-])cc1NC(=O)N(C)Cc1ccco1`, the “T3 sensor activation Q score” value was 0. In the case of `CC1(C)CC2(C)OC2C2(C1)N=NC(=Nc1ccccc1)O2` (stereo not given), the “T3 sensor activation Q score” value is reported as 0.95. For `CC1(C)c2ccccc2-c2nc3ccccc3cc2C1O` (stereo not given), the “T3 sensor activation Q score” value was -0.95. In the case of `N#CCS(=O)(=O)c1cccc[n+]1[O-]`, the “T3 sensor activation Q score” value is reported as -0.95. With `COC(=O)[C@H]1[C@H]2C[C@@H]3c4[nH]c5cc(OC)ccc5c4CCN3C[C@H]2C[C@@H](OC(=O)CC(C)=O)[C@@H]1OC` the “T3 sensor activation Q score” value was 0.85. `O=CN/C=C\c1cc(O)ccc1O` was tested, and the “T3 sensor activation Q score” value was 0.35. With `CC(C)(C)c1nc(-c2cccc(NS(=O)(=O)c3c(F)cccc3F)c2F)c(-c2ccnc(N)n2)s1` the “T3 sensor activation Q score” value was 1.05. `O=C(c1ccccc1)c1ccc(-c2ccc(O)cc2)cc1` was tested, and the “T3 sensor activation Q score” value was 1.35. In the case of `Nc1ccccc1SC1CC(=O)N(c2ccc(Cl)c(Cl)c2)C1=O` (stereo not given), the “T3 sensor activation Q score” value is reported as 1.7. `Nc1ccccc1SC1CC(=O)N(c2ccccc2Cl)C1=O` (stereo not given) was tested, and the “T3 sensor activation Q score” value was 0.8. In the case of `O=C1C(CO)C(CO)C(CO)C1CO` (stereo not given), the “T3 sensor activation Q score” value is reported as 1. `O=C1N=NC2=C1c1c3ccccc3c(O)n1CC2` was tested, and the “T3 sensor activation Q score” value was 1.7. In the case of `Nc1cc(-c2ccccc2)ccc1O`, the “T3 sensor activation Q score” value is reported as -0.45. In the case of `N#CC1=C2CCCCC2(O)NC1=O` (stereo not given), the “T3 sensor activation Q score” value is reported as -0.45. For `N#Cc1ncc(Cl)c2ccccc12`, the “T3 sensor activation Q score” value was 0.9. For `Nc1ccc(S(=O)(=O)Nc2cnc3ccccc3n2)cc1`, the “T3 sensor activation Q score” value was 0.45. With `NC(N)=Nc1ccc(N=C(N)N)cc1` the “T3 sensor activation Q score” value was 0.3. `O=c1ccn2c(n1)SC(c1ccccc1)C2` (stereo not given) was tested, and the “T3 sensor activation Q score” value was 0.2. With `CSc1cccc(NC(=O)N2CCN(C)CC2)c1` the “T3 sensor activation Q score” value was -0.1. In the case of `Cn1c(SCc2ccccn2)nc2c1c(=O)[nH]c(=O)n2C`, the “T3 sensor activation Q score” value is reported as 0.75. `CCCCSc1cc(C)nc(N)n1` was tested, and the “T3 sensor activation Q score” value was 0.9. With `Oc1ccccc1N=Cc1c(O)ccc2ccccc12` the “T3 sensor activation Q score” value was 0.25. `COc1ccc2c(=O)cc(-c3cccnc3)oc2c1OC` was tested, and the “T3 sensor activation Q score” value was 0.1. `CSc1nc(O)c(Nc2cccc(Cl)c2)c(=O)[nH]1` was tested, and the “T3 sensor activation Q score” value was 0.3. For `O=C(Nc1ccc(Cl)cc1)Nc1cccc2nsnc12`, the “T3 sensor activation Q score” value was -1.05. For `OC(c1cc(-c2ccc(C(F)(F)F)cc2)nc(C(F)(F)F)c1)C1CCCCN1` (stereo not given), the “T3 sensor activation Q score” value was -2.3.
